Assay results taken from doi:10.1101/041947v2 (biorxiv, 2016).

Test system: A549
Test: cells
Conditions: Homo sapiens, A549, read-out: IC50 nM

- IC50: 4.3 nM
Compound: CC(=O)O[C@H]1C(=O)[C@@]2(C)[C@H]([C@H](OC(=O)c3ccccc3)[C@]3(O)C[C@H](OC(=O)[C@H](O)[C@@H](NC(=O)c4ccccc4)c4ccccc4)C(C)=C1C3(C)C)[C@]1(OC(C)=O)CO[C@@H]1C[C@@H]2O [Paclitaxel]
